Laboratory results taken from article PMC5433425 (PeerJ, 2017).
This continues a long series; more values of the same kind are listed elsewhere. Peptide text beside a SMILES is read from it. * marks the point of attachment. βNA = c1ccc2cc(N*)ccc2c1

Legend:
[1] = system: E. coli AG100tet; assay: EtBr efflux by real-time fluorometry; settings: 80 µM, + glucose
[2] = system: E. coli AG100A; assay: EtBr efflux by real-time fluorometry; settings: 20 µM

NC(N)=NCCC[C@H](NC(=O)[C@@H](N)Cc1ccccc1)C(=O)Nc1ccc2ccccc2c1 [PAβN] (H-Phe-Arg-βNA) was tested, and the “Fluorescence raw data, Channel Cycling A.530/585hp” value (from here on “Fluorescence raw data”) ([1]; cycle 4) was 2.196, the “Fluorescence raw data” value ([1]; cycle 5) was 2.0501 and the “Fluorescence raw data” value ([1]; cycle 6) was 1.965. The “Fluorescence raw data” value ([1]; cycle 7) was 1.943, the “Fluorescence raw data” value ([1]; cycle 8) was 1.848 and the “Fluorescence raw data” value ([1]; cycle 45) was 1.532. For the same molecule, the “Fluorescence raw data” value ([1]; cycle 46) was 1.541, the “Fluorescence raw data” value ([1]; cycle 47) was 1.582 and the “Fluorescence raw data” value ([1]; cycle 48) was 1.512. For the same molecule, the “Fluorescence raw data” value ([1]; cycle 49) was 1.526, the “Fluorescence raw data” value ([1]; cycle 50) was 1.558 and the “Fluorescence raw data” value ([1]; cycle 51) was 1.588. For the same molecule, the “Fluorescence raw data” value ([1]; cycle 52) was 1.552, the “Fluorescence raw data” value ([1]; cycle 53) was 1.539 and the “Fluorescence raw data” value ([1]; cycle 54) was 1.526. For the same molecule, the “Fluorescence raw data” value ([1]; cycle 55) was 1.533, the “Fluorescence raw data” value ([1]; cycle 56) was 1.535 and the “Fluorescence raw data” value ([1]; cycle 57) was 1.531. The “Fluorescence raw data” value ([1]; cycle 58) was 1.528, the “Fluorescence raw data” value ([1]; cycle 59) was 1.542 and the “Fluorescence raw data” value ([1]; cycle 60) was 1.532. For the same molecule, the “Fluorescence raw data” value ([1]; cycle 61) was 1.533, the “Fluorescence raw data” value ([2]; cycle 1, + glucose) was 1.92 and the “Fluorescence raw data” value ([2]; cycle 1, without glucose) was 1.976. For the same molecule, the “Fluorescence raw data” value ([2]; cycle 2, + glucose) was 1.923, the “Fluorescence raw data” value ([2]; cycle 2, without glucose) was 1.9392 and the “Fluorescence raw data” value ([2]; cycle 3, + glucose) was 1.838. The “Fluorescence raw data” value ([2]; cycle 3, without glucose) was 1.884, the “Fluorescence raw data” value ([2]; cycle 4, + glucose) was 1.837 and the “Fluorescence raw data” value ([2]; cycle 4, without glucose) was 1.887. The “Fluorescence raw data” value ([2]; cycle 5, + glucose) was 1.792, the “Fluorescence raw data” value ([2]; cycle 5, without glucose) was 1.777 and the “Fluorescence raw data” value ([2]; cycle 6, + glucose) was 1.728. For the same molecule, the “Fluorescence raw data” value ([2]; cycle 6, without glucose) was 1.786, the “Fluorescence raw data” value ([2]; cycle 7, + glucose) was 1.71 and the “Fluorescence raw data” value ([2]; cycle 7, without glucose) was 1.721. For the same molecule, the “Fluorescence raw data” value ([2]; cycle 8, + glucose) was 1.698, the “Fluorescence raw data” value ([2]; cycle 8, without glucose) was 1.722 and the “Fluorescence raw data” value ([2]; cycle 9, + glucose) was 1.721. For the same molecule, the “Fluorescence raw data” value ([2]; cycle 9, without glucose) was 1.668, the “Fluorescence raw data” value ([2]; cycle 10, + glucose) was 1.665 and the “Fluorescence raw data” value ([2]; cycle 10, without glucose) was 1.676. For the same molecule, the “Fluorescence raw data” value ([2]; cycle 11, + glucose) was 1.65, the “Fluorescence raw data” value ([2]; cycle 11, without glucose) was 1.675 and the “Fluorescence raw data” value ([2]; cycle 12, + glucose) was 1.6461. For the same molecule, the “Fluorescence raw data” value ([2]; cycle 12, without glucose) was 1.631, the “Fluorescence raw data” value ([2]; cycle 13, + glucose) was 1.606 and the “Fluorescence raw data” value ([2]; cycle 13, without glucose) was 1.632. The “Fluorescence raw data” value ([2]; cycle 14, + glucose) was 1.605, the “Fluorescence raw data” value ([2]; cycle 14, without glucose) was 1.566 and the “Fluorescence raw data” value ([2]; cycle 15, + glucose) was 1.592. The “Fluorescence raw data” value ([2]; cycle 15, without glucose) was 1.586, the “Fluorescence raw data” value ([2]; cycle 16, + glucose) was 1.581 and the “Fluorescence raw data” value ([2]; cycle 16, without glucose) was 1.5794. For the same molecule, the “Fluorescence raw data” value ([2]; cycle 17, + glucose) was 1.665, the “Fluorescence raw data” value ([2]; cycle 17, without glucose) was 1.55 and the “Fluorescence raw data” value ([2]; cycle 18, + glucose) was 1.591. The “Fluorescence raw data” value ([2]; cycle 18, without glucose) was 1.5743, the “Fluorescence raw data” value ([2]; cycle 19, + glucose) was 1.5963 and the “Fluorescence raw data” value ([2]; cycle 19, without glucose) was 1.567. For the same molecule, the “Fluorescence raw data” value ([2]; cycle 20, + glucose) was 1.545, the “Fluorescence raw data” value ([2]; cycle 20, without glucose) was 1.517 and the “Fluorescence raw data” value ([2]; cycle 21, + glucose) was 1.561. For the same molecule, the “Fluorescence raw data” value ([2]; cycle 21, without glucose) was 1.514, the “Fluorescence raw data” value ([2]; cycle 22, + glucose) was 1.561 and the “Fluorescence raw data” value ([2]; cycle 22, without glucose) was 1.514. The “Fluorescence raw data” value ([2]; cycle 23, + glucose) was 1.562, the “Fluorescence raw data” value ([2]; cycle 23, without glucose) was 1.491 and the “Fluorescence raw data” value ([2]; cycle 24, + glucose) was 1.571. For the same molecule, the “Fluorescence raw data” value ([2]; cycle 24, without glucose) was 1.506, the “Fluorescence raw data” value ([2]; cycle 25, + glucose) was 1.524 and the “Fluorescence raw data” value ([2]; cycle 25, without glucose) was 1.503. For the same molecule, the “Fluorescence raw data” value ([2]; cycle 26, + glucose) was 1.531, the “Fluorescence raw data” value ([2]; cycle 26, without glucose) was 1.508 and the “Fluorescence raw data” value ([2]; cycle 27, + glucose) was 1.544. For the same molecule, the “Fluorescence raw data” value ([2]; cycle 27, without glucose) was 1.48, the “Fluorescence raw data” value ([2]; cycle 28, + glucose) was 1.487 and the “Fluorescence raw data” value ([2]; cycle 28, without glucose) was 1.504. The “Fluorescence raw data” value ([2]; cycle 29, + glucose) was 1.5009, the “Fluorescence raw data” value ([2]; cycle 29, without glucose) was 1.524 and the “Fluorescence raw data” value ([2]; cycle 30, + glucose) was 1.526. For the same molecule, the “Fluorescence raw data” value ([2]; cycle 30, without glucose) was 1.529 and the “Fluorescence raw data” value ([2]; cycle 31, + glucose) was 1.525.
